For the assay, the target named is T1, hexokinase 2 (HK2) (human (endogenous in A2780)) (UniProt P52789).
T1 sequence: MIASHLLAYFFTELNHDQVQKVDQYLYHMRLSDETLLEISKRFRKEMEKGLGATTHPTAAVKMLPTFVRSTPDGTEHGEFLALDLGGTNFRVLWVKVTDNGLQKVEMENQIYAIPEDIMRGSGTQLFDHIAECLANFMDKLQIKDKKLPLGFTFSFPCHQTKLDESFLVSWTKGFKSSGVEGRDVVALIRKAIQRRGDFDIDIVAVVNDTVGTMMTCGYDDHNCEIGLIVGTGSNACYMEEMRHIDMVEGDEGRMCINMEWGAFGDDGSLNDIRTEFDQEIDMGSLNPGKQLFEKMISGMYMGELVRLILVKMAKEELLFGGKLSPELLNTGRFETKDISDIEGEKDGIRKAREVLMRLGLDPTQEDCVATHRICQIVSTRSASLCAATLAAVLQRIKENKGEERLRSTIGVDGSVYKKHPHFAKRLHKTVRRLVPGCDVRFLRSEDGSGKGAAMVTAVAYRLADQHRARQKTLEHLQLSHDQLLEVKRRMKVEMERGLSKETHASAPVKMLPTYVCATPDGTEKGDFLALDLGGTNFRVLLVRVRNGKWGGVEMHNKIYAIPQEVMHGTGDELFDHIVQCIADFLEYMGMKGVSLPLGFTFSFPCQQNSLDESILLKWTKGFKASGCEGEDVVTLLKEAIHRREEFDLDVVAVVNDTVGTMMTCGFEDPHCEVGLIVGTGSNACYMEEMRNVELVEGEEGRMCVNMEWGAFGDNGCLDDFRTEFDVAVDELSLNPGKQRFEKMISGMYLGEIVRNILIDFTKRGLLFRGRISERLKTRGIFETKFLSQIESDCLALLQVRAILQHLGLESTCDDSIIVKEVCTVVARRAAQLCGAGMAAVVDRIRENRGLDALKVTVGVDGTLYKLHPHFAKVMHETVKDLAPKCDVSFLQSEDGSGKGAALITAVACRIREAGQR
Description: co-IP; A2780 cells transfected with wt-p62 or ΔUBA-p62, cisplatin 5 μg/mL 12 h; NP40 lysis buffer; immunoprecipitation with anti-HK2 and protein G agarose, blot anti-p62 and anti-HK2.

These are yes or no findings as the source states them, for the method shown. In cells and extracts the contact can be indirect. Binding can be weak; no strength is given.

Take “UBA domain truncated mutant p62 (pcDNA3.1-ΔUBA-p62) (domain or fragment)”: the binding result is listed as “binds”.

The values are drawn from article PMC8070143.
